The record followed here is paper PMC10688018.

The chains behind the UniProt entries cited, without tags or fusion partners.
UniProt Q99J83: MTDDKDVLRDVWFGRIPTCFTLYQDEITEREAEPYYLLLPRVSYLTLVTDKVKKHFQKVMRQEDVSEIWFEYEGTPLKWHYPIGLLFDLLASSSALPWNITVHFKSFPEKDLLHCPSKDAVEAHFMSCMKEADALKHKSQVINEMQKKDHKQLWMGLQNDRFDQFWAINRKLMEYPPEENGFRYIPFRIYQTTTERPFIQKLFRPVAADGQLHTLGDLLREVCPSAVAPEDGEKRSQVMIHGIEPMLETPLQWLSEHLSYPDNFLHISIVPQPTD
UniProt Q8R4B8: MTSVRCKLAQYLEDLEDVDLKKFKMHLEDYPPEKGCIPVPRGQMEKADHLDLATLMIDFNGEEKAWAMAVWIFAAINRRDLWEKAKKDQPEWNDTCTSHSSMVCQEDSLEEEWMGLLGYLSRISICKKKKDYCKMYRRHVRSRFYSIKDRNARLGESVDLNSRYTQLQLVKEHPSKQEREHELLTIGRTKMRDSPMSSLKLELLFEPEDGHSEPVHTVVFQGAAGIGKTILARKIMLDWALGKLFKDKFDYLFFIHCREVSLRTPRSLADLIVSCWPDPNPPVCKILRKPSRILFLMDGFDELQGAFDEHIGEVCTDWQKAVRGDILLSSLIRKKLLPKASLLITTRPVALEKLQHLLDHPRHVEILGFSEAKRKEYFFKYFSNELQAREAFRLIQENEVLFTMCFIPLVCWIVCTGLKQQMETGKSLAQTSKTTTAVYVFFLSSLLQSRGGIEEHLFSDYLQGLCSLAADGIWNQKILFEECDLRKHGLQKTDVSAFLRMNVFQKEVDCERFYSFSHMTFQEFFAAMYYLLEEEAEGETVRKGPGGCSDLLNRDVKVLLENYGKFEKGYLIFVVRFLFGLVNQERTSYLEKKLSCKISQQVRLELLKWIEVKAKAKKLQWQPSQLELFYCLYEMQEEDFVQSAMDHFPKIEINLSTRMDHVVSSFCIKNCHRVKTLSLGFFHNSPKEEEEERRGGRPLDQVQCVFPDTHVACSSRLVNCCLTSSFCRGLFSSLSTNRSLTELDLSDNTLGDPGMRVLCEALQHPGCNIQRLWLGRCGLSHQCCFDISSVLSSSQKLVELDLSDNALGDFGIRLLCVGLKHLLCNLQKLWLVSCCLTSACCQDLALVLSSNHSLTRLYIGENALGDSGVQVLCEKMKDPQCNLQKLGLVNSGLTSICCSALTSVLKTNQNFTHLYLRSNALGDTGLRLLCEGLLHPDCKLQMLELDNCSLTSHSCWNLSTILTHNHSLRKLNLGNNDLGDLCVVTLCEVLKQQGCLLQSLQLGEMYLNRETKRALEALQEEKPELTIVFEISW

These are yes or no findings as the source states them, for the method shown. In cells and extracts the contact can be indirect. Some entries that bind do so weakly or less than the wild type.

The assay addresses Atg5 (mouse (endogenous in BV2)) (UniProt Q99J83). Kind of assay: co-IP; BV2 cell supernatants incubated with Atg5 primary antibody overnight at 4 °C, then protein A/G PLUS-agarose 6-8 h at 4 °C, three washes; IgG as control; western blot of TRIM45 or NLRP3; for NLRP3: control, LPS + ATP and LPS + ATP + HA-TRIM45 (48 h transfection) groups. (In western blotting, separated proteins are transferred to a membrane and probed.)

As to NLRP3 (from UniProt Q8R4B8 1-1033), the binding result is reported as “binds”.

B1: TRIM45 (protein, UniProt Q6PFY8 1-580)
chain: MSEIRKPLLGFVHKLQDANASGSSGKTHCPTCLRLFKVPRLLPCLHTVCTTCLEKLDPFSVVDIRGGDSDTSSEGSVFQDPELCSLQPQIGILCPVCDAQVDLPLGGVKALTVDHLAMNDVLLENLRGEGQGLVCDLCSDREVEKRCQTCKANLCHFCCQAHRRQKKTTYHTMVDLKDLKGYSQVGKPILCPSHPAEELRLFCELCDRPVCRDCVVGEHREHPYDFTSNVIHKHGDSVRELLRDTQPHVEALEDALAQIKSVNNALQERVEAVAADVRTFSEGYIKAIEEHRDKLLQQLDDIRIQRETALQLQKAQLEQLLADMRTGVEFTEHLLTSGSDLEILITKGVVVERLRKLNKVEYSARPGVNHKICFSPQEKAGQCQGYEVYGAINTQEVDPAQCVLQGEDLHRAREKQTASFTLFCKDASGQSMGRGGDNVHVEVVPKDKKDSPIRTVVQDNKDGSYRVSYTPKEPGIYTVWVCIREQHVQGSPFNVTVRRKHRPHPGVFHCCTFCSSGGQKAARCACGGTMPGGYLGCGHGHKGHPGRPHWSCCGKFIEKSECSFTSGQGAPRSLLRTVAL
Consider B1, for which the binding result is recorded as “binds”.
